From PubChem BioAssay AID1117319 (Southern Research Institute, 2015)
Among all 260,000 compounds or so, about 1,500 (0.58%) were called active. The shares of active, inactive and inconclusive entries below differ from those in the screen.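 How the source made its calls: active means inhibition above a set limit at one or more doses, reproduced on every date tested; inconclusive means results disagree between test dates, or hit never tested in dose response; inactive means the rest.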

The chains behind the UniProt entries cited, without tags or fusion partners. Where a name states a change or a piece, a line headed by the entry shows the natural chain unless it says otherwise.
UniProt P69720: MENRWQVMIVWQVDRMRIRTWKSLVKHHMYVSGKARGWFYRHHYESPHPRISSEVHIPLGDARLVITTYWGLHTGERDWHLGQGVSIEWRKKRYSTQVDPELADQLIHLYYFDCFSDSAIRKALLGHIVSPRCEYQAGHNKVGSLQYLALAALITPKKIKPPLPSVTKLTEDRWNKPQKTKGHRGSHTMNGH
UniProt P69721: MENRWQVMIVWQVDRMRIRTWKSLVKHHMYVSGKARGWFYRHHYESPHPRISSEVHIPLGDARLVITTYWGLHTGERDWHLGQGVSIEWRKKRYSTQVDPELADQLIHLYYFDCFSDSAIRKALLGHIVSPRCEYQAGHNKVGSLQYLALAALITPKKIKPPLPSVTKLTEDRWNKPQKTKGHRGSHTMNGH
UniProt P69722: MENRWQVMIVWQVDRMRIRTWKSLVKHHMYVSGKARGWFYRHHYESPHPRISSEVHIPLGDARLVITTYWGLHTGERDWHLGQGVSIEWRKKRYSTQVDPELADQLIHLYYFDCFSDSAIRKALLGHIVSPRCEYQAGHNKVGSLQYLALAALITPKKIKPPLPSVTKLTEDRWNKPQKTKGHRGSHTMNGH
UniProt P69723: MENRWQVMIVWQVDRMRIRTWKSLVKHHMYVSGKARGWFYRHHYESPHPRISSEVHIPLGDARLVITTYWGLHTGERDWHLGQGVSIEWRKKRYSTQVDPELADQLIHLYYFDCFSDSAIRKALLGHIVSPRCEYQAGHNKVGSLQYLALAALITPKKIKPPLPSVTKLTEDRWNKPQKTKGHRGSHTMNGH
UniProt Q9HC16: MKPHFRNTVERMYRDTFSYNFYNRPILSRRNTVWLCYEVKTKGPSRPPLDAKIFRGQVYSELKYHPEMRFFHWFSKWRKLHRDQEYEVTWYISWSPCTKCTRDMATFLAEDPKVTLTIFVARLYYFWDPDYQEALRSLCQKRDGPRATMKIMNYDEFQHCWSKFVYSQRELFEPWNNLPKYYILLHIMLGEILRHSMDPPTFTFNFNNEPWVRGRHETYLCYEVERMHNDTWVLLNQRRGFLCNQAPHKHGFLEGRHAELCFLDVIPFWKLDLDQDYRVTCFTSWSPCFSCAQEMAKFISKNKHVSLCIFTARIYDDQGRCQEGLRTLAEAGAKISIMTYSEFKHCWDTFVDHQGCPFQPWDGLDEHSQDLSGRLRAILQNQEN

The compounds below were run against Virion infectivity factor (Human immunodeficiency virus type 1 group M subtype B (isolate BH10)) + Virion infectivity factor (Human immunodeficiency virus type 1 group M subtype B (isolate BRU/LAI)) + Virion infectivity factor (Human immunodeficiency virus type 1 group M subtype B (isolate PCV12)) + Virion infectivity factor (Human immunodeficiency virus type 1 group M subtype B (isolate HXB2)) + DNA dC->dU-editing enzyme APOBEC-3G (Homo sapiens) (UniProt P69720+P69721+P69722+P69723+Q9HC16) (assay: inhibitors of Vif binding to APOBEC3G peptide, primary screen, biochemical, TR-FRET, GST-Vif 1-94, biotin-A3G peptide, dose response retest (AID 1117319;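 further: Vif residues 1-94 fused to GST binding biotinylated APOBEC3G peptide 110-148; 0% = full assay without inhibitor and 100% = GST in place of GST-Vif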)). Conditions: active compounds read high.

Row | SMILES | inhibition
1 | CCN(CC)S(=O)(=O)c1cccc(-c2nn(-c3ccccc3)cc2/C=C(\C#N)C(=O)NCc2ccco2)c1 | inactive: -3.43%
2 | COC(=O)c1sccc1NC(=O)c1cc(-c2ccc(C)cc2)nc2ccccc12 | inconclusive: 44.9%
3 | COc1ccc(C(C#N)C2(C)OCCO2)cc1OC (stereo unspecified) | inconclusive: 48.8%
4 | CCOc1ccc(NC(=O)CSc2nccn2C)cc1 | inconclusive: 39.7%
5 | O=C(NCc1ccco1)c1scc2c1OCCO2 | inconclusive: 34.8%
6 | S=c1[nH]nc(-c2cc(-c3ccccc3)n[nH]2)n1/N=C/c1c2ccccc2cc2ccccc12 | inconclusive: 33.9%
7 | COC(=O)C1=C(C)N(c2cc(C)cc(C)c2)/C(=C/c2ccco2)C1=O | inconclusive: 37.3%
8 | Cc1cc(C)n2c(SCC(O)=C(C#N)c3nc4ccccc4[nH]3)nnc2n1 | inactive: -1.4%
9 | CCN(CC)S(=O)(=O)c1cc(NC(=O)C(C)OC(=O)c2[nH]c(C)c(C(C)=O)c2C)ccc1C (stereo unspecified) | inconclusive: 41.5%
10 | O=C(CNc1n[nH]c(=O)[nH]c1=O)N/N=C/C1CC=CCC1 (stereo unspecified) | inconclusive: 35.2%
11 | CCN(CC)c1ccc(N=Cc2c(C)[nH]c3ccccc23)cc1 | inconclusive: 41.9%
12 | CCN(CC)S(=O)(=O)c1ccc(Cl)c(C(=O)OC)c1 | inconclusive: 57.2%
13 | COc1ccnc(Oc2ccc(Cl)cc2)c1C#N | inconclusive: 48.5%
14 | CCNc1ccc(C(=O)NN=C2CCCC2)cc1[N+](=O)[O-] | inactive: 4.6%
15 | O=C1CNC(=S)N1CCCc1ccccc1 | inconclusive: 33.4%
16 | CC(=O)Nc1ccc(S(=O)(=O)NCC(=O)OCC(=O)NCc2ccco2)cc1 | inactive: 7.01%
17 | O=c1[nH]c2ccc(N=Cc3c(O)ccc4cc(Br)ccc34)cc2[nH]1 | inconclusive: 51.2%
18 | N#CCCNC(=O)CCN1CCCCC1 | inconclusive: 49%
19 | COc1ccc(-c2cc(C(=O)NCCc3ccccc3)no2)cc1OC | inconclusive: 48.5%
20 | [O-]/[N+](=C\c1ccncc1)c1ccccc1 | inconclusive: 50.5%
21 | Cc1ccccc1C(=O)NCCCNC(=O)c1ccccn1 | inconclusive: 45.3%
22 | O=C(NC(=S)N1CCCc2ccccc21)c1ccc(Cl)cc1 | inactive: -35.9%
23 | Cc1nn2c(C(F)(F)F)cc(-c3ccc(Cl)cc3)nc2c1C(=O)N1CCOCC1 | inconclusive: 37.1%

2 entries picked at random from the list so far, as already listed:
Row | SMILES | inhibition
6 | S=c1[nH]nc(-c2cc(-c3ccccc3)n[nH]2)n1/N=C/c1c2ccccc2cc2ccccc12 | inconclusive: 33.9%
15 | O=C1CNC(=S)N1CCCc1ccccc1 | inconclusive: 33.4%

Entries 12–13 from above:
Row | SMILES | inhibition
12 | CCN(CC)S(=O)(=O)c1ccc(Cl)c(C(=O)OC)c1 | inconclusive: 57.2%
13 | COc1ccnc(Oc2ccc(Cl)cc2)c1C#N | inconclusive: 48.5%

More records follow.

Row | SMILES | inhibition
24 | Cc1ccc(S(=O)(=O)Nc2cc(C(=O)N3CCOCC3)ccc2N2CCCCC2)cc1 | inconclusive: 31.3%
25 | CCOc1cc(/C=N/NC(=S)Nc2ccccc2C(F)(F)F)ccc1OCC(=O)N1CCOCC1 | inconclusive: 37.3%
26 | Cc1c(C(=O)Nc2ccc(S(=O)(=O)NCC3CCCO3)cc2)cccc1[N+](=O)[O-] (stereo unspecified) | inconclusive: 33.5%
27 | COc1ccc(-n2c(C)cc(/C=C/c3nc(O)c([N+](=O)[O-])c(=O)[nH]3)c2C)cc1 | inconclusive: 59.9%
28 | CCN(CC)CCNCC(=O)Nc1ccc(Oc2ccccc2)cc1 | inconclusive: 34.1%
29 | CC(=O)c1cc(C)ccc1OC(=O)c1cccc2nc(C)oc12 | inactive: 3.65%
30 | CCOc1ccc(Nc2nc(C)cc(C)c2C#N)cc1 | inconclusive: 35.5%
31 | CN(Cc1nc(Cc2ccccc2F)no1)[C@@H]1CS(=O)(=O)C[C@H]1O | inconclusive: 42%
32 | Cc1ccc(C)c(OCC(=O)O/N=C(\N)c2ccccn2)c1 | inconclusive: 54%
33 | O=C(Nc1ccccn1)C(NS(=O)(=O)c1cccc2nsnc12)c1ccccc1 (stereo unspecified) | inconclusive: 35.6%
34 | CC(C)OC(=O)c1nnc(Cc2ccc(F)cc2)o1 | inconclusive: 19.7%
35 | COc1ccc(C2Nc3ccccc3C(=O)N2NS(=O)(=O)c2ccc(C)cc2)cc1 (stereo unspecified) | inconclusive: 58.7%
36 | Cc1onc(-c2c(F)cccc2Cl)c1C(=O)OCC(=O)NC(c1ccccc1)c1ccccc1 | inconclusive: 55%
37 | O=C(CCC1CCCN(C(=O)c2ccsc2)C1)NCc1ccc(F)c(F)c1 (stereo unspecified) | inconclusive: 40.9%
38 | Fc1ccc(NCc2cn3ccccc3n2)cc1 | inconclusive: 2.02%
39 | Cc1ccc(C(=O)N/C(=C\c2cccs2)C(=O)NCCc2c[nH]c3ccccc23)cc1C | inconclusive: 46.5%
40 | CCC(=O)Nc1ccc(C(=O)n2nc(C)cc2C)cc1 | inconclusive: 40.8%
41 | CCOC(=O)C1(Cc2ccccc2C(F)(F)F)CCN(CC(O)CO)CC1 (stereo unspecified) | inconclusive: 52.6%
42 | CCc1ccc(NC(=O)CSCc2ccc(C(=O)O)cc2)cc1 | inactive: 2.67%
43 | Cn1c(C(=O)OCC(=O)NCc2ccco2)cc2sccc21 | inconclusive: 55.3%
44 | COc1ccc(NC(=O)c2cc(-c3ccccc3)nc3c2c(C)nn3-c2ccccc2)c(OC)c1 | inactive: 1.03%
45 | CCCc1nc2c(sc3nc4c(cc32)COC(C)(C)C4)c(=O)n1Cc1ccco1 | inconclusive: 46%
46 | COc1ccc(Nc2nc(-c3cc4cccc(OC)c4oc3=O)cs2)cc1 | inconclusive: 52.4%

Row | SMILES | inhibition
47 | Cc1c(NC(=O)CCCOc2ccccc2)cccc1[N+](=O)[O-] | inconclusive: 50%
48 | Cc1ccc(/C=c2\sc3nc(-c4ccco4)nn3c2=O)o1 | inconclusive: 58.2%
49 | COC(=O)c1ccc(COC(=O)c2ccccn2)cc1 | inconclusive: 35.2%
50 | Clc1cccc(-c2cc3nc4c(c(NCc5ccco5)n3n2)CCCC4)c1 | inactive: -4.82%
51 | C=CCc1c(N(CC)CC)nc(C)[nH]c1=O | inconclusive: 39.8%
52 | O=c1c2cc(N3CCOCC3)ccc2[nH]c(=S)n1Cc1ccccc1Cl | inactive: -15.9%
53 | CCCn1c(=O)c2c(nc(Br)n2CCC)n(C)c1=O | inconclusive: 62.6%
54 | CC(C)N(Cc1ccccc1)C(=O)COC(=O)c1ccc2c(c1)OCCO2 | inconclusive: 35.5%
55 | O=S(=O)(/N=C(/Nc1ccccc1)C(F)(F)F)c1ccccc1 | inconclusive: 45.4%
56 | CN(C)S(=O)(=O)c1cccc(NC(=S)N/N=C/c2ccco2)c1 | inconclusive: 59%
57 | CC(NC(=O)c1cnc2n(c1=O)CCS2)c1ccccc1 (stereo unspecified) | inconclusive: 34.3%
58 | Cc1ccccc1OCC1Cn2c(nc3c2c(=O)[nH]c(=O)n3C)O1 (stereo unspecified) | inconclusive: 62.4%
59 | O=C(Cn1nnc(-c2ccccc2Cl)n1)Nc1cccc(S(=O)(=O)N2CCCC2)c1 | inactive: -4.6%
60 | CC1CC(C)CN(C(=S)Nc2ccc3nc4n(c(=O)c3c2)CCCCC4)C1 (stereo unspecified) | inconclusive: 36.1%
61 | CCN(CC)CCN(CC(=O)N(C1CCCCC1)C1CCCCC1)C(=O)c1cccnc1 | inconclusive: 54.3%
62 | O=c1/c(=C\c2cc([N+](=O)[O-])cc([N+](=O)[O-])c2O)sc2nc3ccccc3n12 | inconclusive: 35.5%
63 | O=C(O)c1ccc(COc2ccc3ccccc3c2/C=C2/NC(=O)N(c3ccccc3)C2=O)cc1 | inactive: 24.9%
64 | CNCc1ccccc1Sc1ccc(OC)c(OC)c1 | inconclusive: 61.6%
65 | CCCCNc1cc(=O)n(C)c(=O)[nH]1 | inconclusive: 3.29%
66 | CCCOc1ccc(N2C(=O)CC(N3CCN(CCN=CC4=C(O)CC(C)(C)CC4=O)CC3)C2=O)cc1 (stereo unspecified) | inactive: 8.53%
67 | C=CCOc1nc2c(c(=O)n(C)c(=O)n2C)n1Cc1ccccc1Cl | inconclusive: 59.4%
68 | NS(=O)(=O)c1ccc(CCNC(=O)c2ccc3c(c2)OCCO3)cc1 | inconclusive: 46.3%
69 | O=C(CSc1nc(C2CCCCC2)n(-c2ccccc2)n1)NCCN1C(=O)CSC1=O | inconclusive: 44%

Row | SMILES | inhibition
70 | CC(=O)Nc1nc(SCc2cccc3ccccc23)n[nH]1 | inconclusive: 50.7%
71 | CS(=O)(=O)N(CC(=O)Nc1ccc(S(=O)(=O)N2CCOCC2)cc1)c1ccccc1Cl | inconclusive: 45.8%
72 | COc1ccc(-c2c3c([nH]c(=S)c2C#N)CCC3)cc1 | inactive: -9.25%
73 | CCNC(=O)C1(c2ccccc2)CCCC1 | inconclusive: 33.1%
74 | COc1cccc(=O)c2c(C)n(CC(=O)c3ccccc3)c(C)c12 | inactive: 19.6%
75 | COC(=O)Cc1ccc(NC(=S)Nc2ccccn2)cc1 | inconclusive: 42.4%
76 | COc1ccc2c(OC)cc(=O)n(C)c2c1 | inactive: 6.19%
77 | Cc1c(Cl)cccc1NC(=O)CCCCCN1C(=O)CCC1=O | inactive: -0.64%
78 | COc1ccc(C(=O)/C=C/Nc2ccc([N+](=O)[O-])cc2C)c(OC)c1 | inconclusive: 51.5%
79 | O=C(COc1nsnc1N1CCOCC1)N/N=C/c1ccccc1O | inconclusive: 48.1%
80 | CCOc1ccccc1NC(=O)c1ccc(-n2cncn2)nc1 | inconclusive: 36.9%
81 | COc1ccc(N2CSC3=C(C#N)C(c4ccc(OC)c(OC)c4)CC(=O)N3C2)c(OC)c1 (stereo unspecified) | inconclusive: 51.5%
82 | O=c1c2ccc(Cl)cc2[nH]c(=S)n1Cc1cccnc1 | inconclusive: 37.1%
83 | O=C(C1=C(O)C(=O)N(CCCN2CCOCC2)C1c1ccncc1)c1cc2ccccc2o1 (stereo unspecified) | inconclusive: 33.2%
84 | O=C(O)Cc1ccc(-n2cccc2)cc1 | inconclusive: 56.3%
85 | Cc1cccc(-c2nc(=S)c3c(n2Cc2ccco2)CCCC3)c1 | inconclusive: 34.7%
86 | CCCCC(=O)NC(=S)Nc1c(C)cc(Br)cc1C | inconclusive: 46.4%
87 | FC(F)Oc1cccc2cccnc12 | inconclusive: 56.3%
88 | Cc1cccc(-n2ccnc2SCC(=O)O)c1C | inactive: -0.53%
89 | CCOC(=O)c1sc(NC(=O)CSc2nc(C)cc(C)n2)c(C#N)c1C | inconclusive: 39.1%
90 | O=C(COn1nnc2ccc(Cl)cc21)NC12CC3CC(CC(C3)C1)C2 | inconclusive: 42%
91 | COc1ccc(C2C(C(=O)/C=C/c3ccco3)=C(O)C(=O)N2CCN2CCOCC2)cc1 (stereo unspecified) | inconclusive: 64.7%
